Assay results: patent US12245589B2, “Omega-alicyclic tunicamycins and analogs” (priority 2022, dated 2025)
For at least one compound, name, drawing or mass did not settle the structure.

Tested on: Mycobacterium avium subsp. paratuberculosis (MAP) strain K-10
Assay: Antibiotic disc assay on agar plates, MAP strain K-10
Conditions: antibiotic discs on the plate for 13 days, FIG. 15C

SMILES: C[C@@H](O)[C@H]1C(=O)N2C(C(=O)O)=C(SCCN=CN)C[C@H]12 [imipenem]
- activity on MAP strain K-10: resistant
